Assay results published in patent US20100227400A1 (published 2010).
No constants are given. Whether binding was seen depends on the method and setting. Some results given as binding are weak or reduced against the parent protein; the word gives no strength. Tags and fused reporters may be left off the sequences shown.

Biological target: DsRed K83R, polyhistidine-tagged
Test: SDS-PAGE without heating, self-association

- binding: binds
B1: DsRed K83R, polyhistidine-tagged (protein)
chain: MRGSHHHHHHGMASMTGGQQMGRDLYDDDDKDPMRSSKNVIKEFMRFKVRMEGTVNGHEFEIEGEGEGRPYEGHNTVKLKVTKGGPLPFAWDILSPQFQYGSKVYVKHPADIPDYRKLSFPEGFKWERVMNFEDGGVVTVTQDSSLQDGCFIYKVKFIGVNFPSDGPVMQKKTMGWEASTERLYPRDGVLKGEIHKALKLKDGGHYLVEFKSIYMAKKPVQLPGYYYVDSKLDITSHNEDYTIVEQYERTEGRHHLFL
